Measurements reported in PubChem BioAssay AID504784 (Drosophila RNAi Screening Center, 2011).
Assay: 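Search for regulators of lipid droplet storage in oleate-fed fly cells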 (primary screen). Cells: Drosophila Kc167 embryonic cells. Reagent: long dsRNA against Drosophila genes, about 250 ng dsRNA per well. Duration: 4 days. Conditions: cells fed 400 µM oleic acid bound to BSA. Read-out: 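Cells imaged and segmented; ratio of lipid droplet area to nuclear area, log-transformed, then normalised as a B-score over the screen; higher means more stored lipid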. Reading the numbers: droplet/nuclear area B-score: higher = more stored lipid (overstorage).
The deposit covers about 17,000 reagents; shown is an unselected part of those with a known target gene and a result. 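Each column is one replicate's B-score; the combined score over replicates was not deposited, so single values may mislead.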 Names joined by + are all predicted targets of the reagent. No sequences are given here.

predicted target	DRSC id	droplet/nuclear area B-score, replicate 1	droplet/nuclear area B-score, replicate 2	droplet/nuclear area B-score, replicate 3
jim	DRSC11889	-1.83	-0.0428	-0.485
OS9 + Hf	DRSC03392	0.782	0.206	
Rbp1-like	DRSC19828	-0.977	-0.647	-1.78
Rbp1-like	DRSC22075	1.21	-1.41	
Trxr1 (Thioredoxin reductase 1)	DRSC18668	0.318	-0.261	-0.000228
Trxr1 (Thioredoxin reductase 1)	DRSC22293	1.32	-0.278	
BomT3 (Bomanin Tailed 3)	DRSC15871	0.615	0.901	
CG31953 (retired record) + gkt	DRSC00709	-0.731	-0.543	
CG31041	DRSC13951	0.0895	-0.0113	
CREG (Cellular Repressor of E1A-stimulated Genes)	DRSC16595	-0.17	-0.238	
rin (rasputin)	DRSC17045	3.21	4.06	
rin (rasputin)	DRSC22997	2.08	-1.82	
Aos1 (Activator of SUMO 1)	DRSC14113	0.981	4.55	
CG11563	DRSC14327	1.03	-0.801	
CG5013	DRSC15695	-1.18	0.865	
CG34460	DRSC06974	-0.0184	0.845	
Polr1B (RNA polymerase I subunit B)	DRSC00780	-0.672	-1.43	
CG42490 (retired record)	DRSC01649	0.789	0.745	
Jon99Fii + Jon99Cii + Jon99Ciii + 1 more	DRSC15298	-2.6	2.89	
edl (ETS-domain lacking)	DRSC06516	-1.23	-0.0224	
Amnionless	DRSC00317	0.466	-0.206	
sob	DRSC00838	1.09	3.84	
CG5003	DRSC15694	-2.12		
ng1 (new glue 1)	DRSC18802	-0.617	-0.948	
E(var)3-9 (Enhancer of variegation 3-9)	DRSC14451	-0.477	1.55	
E(var)3-9 (Enhancer of variegation 3-9)	DRSC23242	0.645	0.586	
CG4927	DRSC06903	0.686	-0.911	
CG13050	DRSC09931	0.794	-1.99	
endos (endosulfine)	DRSC10658	0.453	-0.858	-0.596
CG3860	DRSC04425	-0.463	-0.311	
jar (jaguar)	DRSC16974	0.0351	-0.0399	
Ubc87F (Ubiquitin conjugating enzyme 87F)	DRSC16513	0.0662	0.759	
DhpD (Dihydropterin deaminase)	DRSC12288	0.807	2.5	1.32
CG17807	DRSC04296	-2.78	-0.399	
